Data on one molecule can be found in publication PMC12054630.

No constants are given. Whether binding was seen depends on the method and setting. Binding seen in cells or lysates may run through a third protein. These calls come from enrichment with a bait or labelling near it, and not all partners need be listed.

The target of this assay is T1, Sorbin and SH3 Domain Containing 2 (SORBS2), mouse heart (mouse (endogenous in mouse heart)) (UniProt Q3UTJ2).
T1 sequence: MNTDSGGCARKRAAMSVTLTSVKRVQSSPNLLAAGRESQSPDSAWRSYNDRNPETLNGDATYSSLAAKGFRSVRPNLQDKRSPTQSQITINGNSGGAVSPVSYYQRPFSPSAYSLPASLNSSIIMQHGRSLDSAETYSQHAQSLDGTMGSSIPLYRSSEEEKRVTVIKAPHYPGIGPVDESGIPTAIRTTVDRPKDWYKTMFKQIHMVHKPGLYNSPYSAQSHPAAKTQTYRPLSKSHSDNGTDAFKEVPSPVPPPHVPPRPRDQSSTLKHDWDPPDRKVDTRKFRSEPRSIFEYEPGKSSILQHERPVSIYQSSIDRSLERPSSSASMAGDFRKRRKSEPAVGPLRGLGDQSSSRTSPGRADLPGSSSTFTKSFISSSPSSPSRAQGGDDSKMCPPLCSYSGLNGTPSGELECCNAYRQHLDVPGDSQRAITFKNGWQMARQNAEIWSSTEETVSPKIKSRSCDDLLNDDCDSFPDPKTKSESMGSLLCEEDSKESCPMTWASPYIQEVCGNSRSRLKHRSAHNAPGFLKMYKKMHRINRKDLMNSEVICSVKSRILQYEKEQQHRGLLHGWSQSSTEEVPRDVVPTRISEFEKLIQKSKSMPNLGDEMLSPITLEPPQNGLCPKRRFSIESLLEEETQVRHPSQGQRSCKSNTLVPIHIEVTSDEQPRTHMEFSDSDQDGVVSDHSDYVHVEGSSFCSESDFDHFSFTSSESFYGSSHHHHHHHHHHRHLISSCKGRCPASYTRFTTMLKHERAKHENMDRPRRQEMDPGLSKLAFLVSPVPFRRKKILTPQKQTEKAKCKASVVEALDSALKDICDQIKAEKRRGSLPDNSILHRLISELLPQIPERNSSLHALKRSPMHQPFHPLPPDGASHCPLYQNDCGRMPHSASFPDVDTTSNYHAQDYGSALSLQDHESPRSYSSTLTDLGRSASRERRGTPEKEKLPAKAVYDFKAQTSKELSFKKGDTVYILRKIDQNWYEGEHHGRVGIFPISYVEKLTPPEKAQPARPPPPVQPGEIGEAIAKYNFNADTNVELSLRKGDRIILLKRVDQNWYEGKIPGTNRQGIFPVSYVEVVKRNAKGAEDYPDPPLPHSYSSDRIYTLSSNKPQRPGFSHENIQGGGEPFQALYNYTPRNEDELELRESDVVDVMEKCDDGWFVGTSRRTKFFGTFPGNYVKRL
As to the kind of experiment: affinity purification with mass spectrometry; left ventricular tissue of healthy (sham) and TAB mouse hearts lysed; immunoprecipitation with SORBS2 antibody on Dynabeads Protein G against isotype control; SDS-PAGE, digestion, mass spectrometry; n = 6 per condition.

B1: Zyxin (protein, UniProt Q62523 1-564)
chain: MAAPRPPPAISVSVSAPAFYAPQKKFAPVVAPKPKVNPFRPGDSEPPVAAGAQRAQMGRVGEIPPPPPEDFPLPPPPLIGEGDDSEGALGGAFPPPPPPMIEEPFPPAPLEEDIFPSPPPPLEEEGGPEAPTQLPPQPREKVCSIDLEIDSLSSLLDDMTKNDPFKARVSSGYVPPPVATPFVPKPSTKPAPGGTAPLPPWKTPSSSQPPPQPQAKPQVQLHVQPQAKPHVQPQPVSSANTQPRGPLSQAPTPAPKFAPVAPKFTPVVSKFSPGAPSGPGPQPNQKMVPPDAPSSVSTGSPQPPSFTYAQQKEKPLVQEKQHPQPPPAQNQNQVRSPGGPGPLTLKEVEELEQLTQQLMQDMEHPQRQSVAVNESCGKCNQPLARAQPAVRALGQLFHITCFTCHQCQQQLQGQQFYSLEGAPYCEGCYTDTLEKCNTCGQPITDRMLRATGKAYHPQCFTCVVCACPLEGTSFIVDQANQPHCVPDYHKQYAPRCSVCSEPIMPEPGRDETVRVVALDKNFHMKCYKCEDCGKPLSIEADDNGCFPLDGHVLCRKCHSARAQT
Regarding B1, the binding entry was “binds”.
